Test results from patent publication US20160108128A1 (CANCER RESEARCH TECHNOLOGY, published 2016).
No constants are given. Whether binding was seen depends on the method and setting. Binding can be weak; no strength is given.

Amino acid sequences for entries named in this document (tags omitted). A change or cut given only in a name is not applied to a line headed by its entry. Residues count along the entry.
UniProt Q9QXX0, residues 34-1218: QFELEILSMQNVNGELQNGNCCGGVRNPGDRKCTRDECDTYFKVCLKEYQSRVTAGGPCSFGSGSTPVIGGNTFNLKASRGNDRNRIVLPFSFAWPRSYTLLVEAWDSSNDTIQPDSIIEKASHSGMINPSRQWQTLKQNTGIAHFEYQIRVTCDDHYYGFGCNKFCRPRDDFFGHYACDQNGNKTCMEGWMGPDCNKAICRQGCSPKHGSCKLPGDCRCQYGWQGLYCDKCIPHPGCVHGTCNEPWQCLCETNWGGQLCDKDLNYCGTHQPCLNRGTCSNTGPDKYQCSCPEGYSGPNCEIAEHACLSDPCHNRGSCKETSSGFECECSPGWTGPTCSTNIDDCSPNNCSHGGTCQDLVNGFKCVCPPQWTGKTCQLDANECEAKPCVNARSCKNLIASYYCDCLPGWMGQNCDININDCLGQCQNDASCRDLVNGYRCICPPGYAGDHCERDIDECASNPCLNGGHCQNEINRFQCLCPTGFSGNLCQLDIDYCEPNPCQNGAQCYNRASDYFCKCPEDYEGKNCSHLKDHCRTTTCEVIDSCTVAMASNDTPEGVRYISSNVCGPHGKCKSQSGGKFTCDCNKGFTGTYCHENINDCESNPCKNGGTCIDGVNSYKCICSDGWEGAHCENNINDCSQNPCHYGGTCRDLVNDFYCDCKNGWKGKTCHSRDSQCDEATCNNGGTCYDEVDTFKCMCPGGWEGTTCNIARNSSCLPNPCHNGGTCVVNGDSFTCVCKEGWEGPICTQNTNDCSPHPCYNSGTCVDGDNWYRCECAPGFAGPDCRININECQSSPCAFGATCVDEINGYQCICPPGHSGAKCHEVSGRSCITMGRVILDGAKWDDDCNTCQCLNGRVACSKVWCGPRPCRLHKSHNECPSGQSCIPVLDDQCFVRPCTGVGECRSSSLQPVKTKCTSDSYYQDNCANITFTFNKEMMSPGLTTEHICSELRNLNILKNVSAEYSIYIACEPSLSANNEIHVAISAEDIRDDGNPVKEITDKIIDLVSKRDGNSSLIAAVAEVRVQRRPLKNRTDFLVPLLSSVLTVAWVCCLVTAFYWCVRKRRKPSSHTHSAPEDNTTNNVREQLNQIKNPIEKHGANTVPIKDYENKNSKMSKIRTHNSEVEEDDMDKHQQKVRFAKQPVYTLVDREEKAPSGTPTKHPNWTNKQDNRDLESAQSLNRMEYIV
UniProt P78504, residues 34-1218: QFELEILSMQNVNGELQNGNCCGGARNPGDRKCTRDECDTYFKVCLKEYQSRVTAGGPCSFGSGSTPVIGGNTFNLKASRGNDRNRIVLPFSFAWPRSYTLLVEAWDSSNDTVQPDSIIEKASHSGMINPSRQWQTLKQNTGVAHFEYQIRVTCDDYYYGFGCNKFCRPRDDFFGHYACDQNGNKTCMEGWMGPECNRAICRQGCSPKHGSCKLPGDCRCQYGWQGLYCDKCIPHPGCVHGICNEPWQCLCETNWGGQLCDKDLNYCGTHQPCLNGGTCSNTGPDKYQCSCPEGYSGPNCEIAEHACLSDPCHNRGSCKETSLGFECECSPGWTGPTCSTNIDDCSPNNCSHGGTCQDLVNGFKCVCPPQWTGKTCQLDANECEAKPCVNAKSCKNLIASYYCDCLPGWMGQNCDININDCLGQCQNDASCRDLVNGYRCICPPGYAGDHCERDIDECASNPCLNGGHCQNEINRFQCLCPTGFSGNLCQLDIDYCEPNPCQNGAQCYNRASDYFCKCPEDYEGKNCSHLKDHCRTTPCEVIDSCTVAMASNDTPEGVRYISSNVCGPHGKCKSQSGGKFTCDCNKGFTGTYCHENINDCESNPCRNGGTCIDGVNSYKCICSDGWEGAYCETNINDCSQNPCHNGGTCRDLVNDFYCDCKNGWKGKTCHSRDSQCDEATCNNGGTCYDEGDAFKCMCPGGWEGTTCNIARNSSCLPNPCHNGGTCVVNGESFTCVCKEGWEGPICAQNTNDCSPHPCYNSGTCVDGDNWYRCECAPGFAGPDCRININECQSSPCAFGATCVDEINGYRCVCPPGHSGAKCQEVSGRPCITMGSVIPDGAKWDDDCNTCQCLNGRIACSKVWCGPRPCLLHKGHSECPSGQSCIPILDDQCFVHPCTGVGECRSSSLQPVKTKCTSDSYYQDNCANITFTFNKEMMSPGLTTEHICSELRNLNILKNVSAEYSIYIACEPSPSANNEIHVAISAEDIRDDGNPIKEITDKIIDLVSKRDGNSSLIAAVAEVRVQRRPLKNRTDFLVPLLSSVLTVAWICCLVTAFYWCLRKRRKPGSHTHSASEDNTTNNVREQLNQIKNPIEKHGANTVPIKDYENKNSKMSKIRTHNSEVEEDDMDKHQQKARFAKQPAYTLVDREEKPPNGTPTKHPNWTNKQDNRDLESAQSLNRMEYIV
UniProt P46531: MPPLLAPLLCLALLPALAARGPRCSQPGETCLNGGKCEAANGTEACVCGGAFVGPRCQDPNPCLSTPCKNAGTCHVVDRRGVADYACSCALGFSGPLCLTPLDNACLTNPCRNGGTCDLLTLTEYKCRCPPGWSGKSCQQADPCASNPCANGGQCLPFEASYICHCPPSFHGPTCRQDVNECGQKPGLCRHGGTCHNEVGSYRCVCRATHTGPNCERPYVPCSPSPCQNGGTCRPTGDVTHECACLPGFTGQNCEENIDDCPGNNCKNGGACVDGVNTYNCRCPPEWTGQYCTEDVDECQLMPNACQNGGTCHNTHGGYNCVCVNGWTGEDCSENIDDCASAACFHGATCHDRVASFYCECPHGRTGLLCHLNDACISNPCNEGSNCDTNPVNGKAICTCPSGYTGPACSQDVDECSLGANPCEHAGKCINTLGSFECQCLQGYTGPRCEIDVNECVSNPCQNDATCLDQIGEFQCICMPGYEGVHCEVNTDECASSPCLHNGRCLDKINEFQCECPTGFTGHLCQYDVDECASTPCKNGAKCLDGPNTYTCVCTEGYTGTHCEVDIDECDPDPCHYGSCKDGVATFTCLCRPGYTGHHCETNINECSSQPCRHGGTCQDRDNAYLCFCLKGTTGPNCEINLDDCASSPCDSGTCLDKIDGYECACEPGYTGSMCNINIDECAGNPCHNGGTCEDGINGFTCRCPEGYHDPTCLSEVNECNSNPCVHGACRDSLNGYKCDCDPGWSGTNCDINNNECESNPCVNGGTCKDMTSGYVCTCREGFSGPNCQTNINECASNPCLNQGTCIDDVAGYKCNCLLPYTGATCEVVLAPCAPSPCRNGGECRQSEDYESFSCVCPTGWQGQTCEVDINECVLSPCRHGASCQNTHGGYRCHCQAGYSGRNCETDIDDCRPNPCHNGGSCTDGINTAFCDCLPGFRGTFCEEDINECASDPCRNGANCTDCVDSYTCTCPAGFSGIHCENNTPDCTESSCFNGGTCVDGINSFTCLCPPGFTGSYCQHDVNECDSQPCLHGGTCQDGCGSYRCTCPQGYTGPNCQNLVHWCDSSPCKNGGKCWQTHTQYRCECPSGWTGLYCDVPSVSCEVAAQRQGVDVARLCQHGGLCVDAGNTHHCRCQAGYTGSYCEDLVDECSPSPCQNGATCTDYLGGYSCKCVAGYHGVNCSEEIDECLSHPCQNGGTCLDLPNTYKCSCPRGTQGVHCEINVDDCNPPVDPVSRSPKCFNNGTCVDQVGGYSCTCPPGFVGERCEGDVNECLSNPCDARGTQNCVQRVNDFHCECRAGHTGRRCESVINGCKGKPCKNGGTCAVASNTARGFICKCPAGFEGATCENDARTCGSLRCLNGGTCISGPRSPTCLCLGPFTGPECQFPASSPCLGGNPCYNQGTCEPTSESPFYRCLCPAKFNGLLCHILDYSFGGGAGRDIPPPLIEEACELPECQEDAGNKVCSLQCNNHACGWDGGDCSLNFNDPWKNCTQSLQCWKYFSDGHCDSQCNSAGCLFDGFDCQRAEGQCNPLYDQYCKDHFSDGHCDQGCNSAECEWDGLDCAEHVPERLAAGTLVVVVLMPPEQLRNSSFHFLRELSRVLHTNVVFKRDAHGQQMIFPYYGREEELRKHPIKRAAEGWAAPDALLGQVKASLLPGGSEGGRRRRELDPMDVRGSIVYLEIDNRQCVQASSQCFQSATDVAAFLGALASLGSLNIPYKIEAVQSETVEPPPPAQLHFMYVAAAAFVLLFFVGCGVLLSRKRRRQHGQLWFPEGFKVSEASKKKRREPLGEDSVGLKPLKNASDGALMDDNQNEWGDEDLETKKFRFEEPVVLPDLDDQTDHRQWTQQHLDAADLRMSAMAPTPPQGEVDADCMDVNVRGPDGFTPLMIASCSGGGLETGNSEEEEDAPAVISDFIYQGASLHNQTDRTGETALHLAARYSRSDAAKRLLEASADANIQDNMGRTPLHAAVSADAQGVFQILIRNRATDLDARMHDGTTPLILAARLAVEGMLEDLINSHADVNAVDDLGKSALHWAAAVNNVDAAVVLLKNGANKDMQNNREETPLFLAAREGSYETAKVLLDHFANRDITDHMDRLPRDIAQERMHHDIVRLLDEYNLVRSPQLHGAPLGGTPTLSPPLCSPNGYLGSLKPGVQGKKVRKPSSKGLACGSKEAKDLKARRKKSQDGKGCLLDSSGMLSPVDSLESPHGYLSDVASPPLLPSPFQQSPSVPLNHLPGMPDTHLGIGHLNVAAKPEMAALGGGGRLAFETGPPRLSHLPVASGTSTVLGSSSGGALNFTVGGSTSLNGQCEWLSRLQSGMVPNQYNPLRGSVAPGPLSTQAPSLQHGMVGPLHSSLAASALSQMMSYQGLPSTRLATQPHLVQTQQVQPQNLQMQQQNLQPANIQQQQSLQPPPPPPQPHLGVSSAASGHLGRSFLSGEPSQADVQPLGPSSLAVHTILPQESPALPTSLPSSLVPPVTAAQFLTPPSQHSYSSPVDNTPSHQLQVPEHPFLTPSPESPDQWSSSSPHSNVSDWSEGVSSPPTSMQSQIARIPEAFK

Legend:
[1] = biological target: murine Jagged 1, full length, on B16F10 cells (mouse) (UniProt Q9QXX0); assay: FACS, biotinylated N1-EGF11-13 on avidin-coated beads, B16F10 cells transfected with murine J1
[2] = biological target: T1, human Jagged 1, full length, on cells (human, UniProt P78504 34-1218); assay: FACS, biotinylated N1-EGF11-13 on avidin-coated beads, HEK293 cells transfected with human J1
T1 construct: whole, on cells; the cell is named under assay; also called hJ1; J1

binding [1]: binds
binding [2]: binds
Substance: human Notch 1 EGF11-13 soluble recombinant protein (411-526) (from UniProt P46531) (receptor)
